Some of the results follow. These are further read-outs of the screen, such as a control signal, another cell line or another target. No call is given for them. The list favours compounds with an active or inconclusive main result. Potencies come from curve fits of mixed quality, noted in brackets.
Experiment: qHTS Assay for Lipid Storage Modulators in Drosophila S3 Cells;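 on cell number change: cells counted by Cell Tracker Red CMTPX staining in the red channel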
Conditions: BODIPY lipid droplet fluorescence, 18-24 h; for cell number change: measured here: cell count max response, cells fed with added oleic acid
Method in brief: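 Drosophila S3 cells got compounds at several concentrations plus oleic acid (400 uM solution). Laser-scanning cytometry with 488 nm excitation read lipid droplets at 500-530 nm and cells at 575-640 nm. Percent activity was relative to 20 uM Triacsin C.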

[1] = measured here: cell number channel AC50, cells fed with added oleic acid
[2] = measured here: lipid fluorescence (Fed channel) AC50, cells fed with added oleic acid

Compound | cell number change | AC50 [1] | AC50 [2]
O=c1cc(O)c2c(=O)n(-c3ccccc3)c3c(c2o1)CCCCC3 | 33.3% | 29.1 µM [rising, single point] | –
COc1ccccc1NC(=O)c1oc2ccccc2c1NC(=O)C1CC1 | 90.4% | 29.1 µM [rising, single point] | –
COc1ccc2cc(CCNC(=O)c3ccco3)c(=O)[nH]c2c1 | -39.3% | 35.5 µM [falling, single point] | –
CC1=CC(C)(C)Nc2ccc(OS(=O)(=O)c3ccc(C)cc3)cc21 | – | – | 16.4 µM [falling, partial curve, poor fit]
CSc1nc(N)nc(SCC(=O)C(C)(C)C)c1C#N | 150% | 14.6 µM [rising, partial curve] | 0.58 µM [falling, single point]
CN(C)CC(=O)Nc1ccc(Oc2ccc(Cl)cc2)cc1 | -39% | 4.11 µM [falling, full curve, poor fit] | –
CCOC(=O)CCN(Cc1cccs1)S(=O)(=O)c1ccc(Cl)cc1 | 12.9% | – | 0.651 µM [rising, full curve, poor fit]
O=C(Nc1ccc(Br)cc1)c1ccc(Br)c(S(=O)(=O)Nc2cccnc2)c1 | 16.4% | – | 6.51 µM [rising, single point]
O=C1SC(c2ccccc2)=N/C1=C/c1ccco1 | 0.805% | – | 0.651 µM [falling, full curve, poor fit]
COC(=O)c1cn(-c2ccccc2)nc1C(=O)OC | – | 6.51 µM [rising, single point] | –
Cc1cc(NC(=O)COC(=O)Cn2c(C)csc2=O)ccc1Br | 36.2% | 14.6 µM [rising, partial curve, poor fit] | 20.6 µM [rising, single point]
COc1ccc(NC(=S)NC(=O)/C=C/c2ccco2)c(OC)c1 | 5.11% | – | –
Cc1ccc(C(C)C)c(OCc2ccc(-c3nnco3)cc2)c1 | -49.9% | 29.1 µM [falling, single point] | –
Cc1ccc(C(c2cc(Cl)c3cccnc3c2O)N2CCN(C)CC2)cc1 (stereo not given) | -12.4% | – | –
COc1ccc(Nc2nnc(C)c(=O)[nH]2)cc1 | -19.5% | 0.00517 µM [falling, full curve, poor fit] | 6.51 µM [falling, single point]
CCOc1ccc(CCNC(=O)C2CC(=O)N(CCc3ccc(OC)c(OC)c3)C2)cc1OCC (stereo not given) | – | 6.51 µM [falling, single point] | –
CN1C(=O)C(O)(C2COC(C)(C)CC2=O)c2ccccc21 (stereo not given) | 0.0764% | – | –
Cc1ccccc1OCC(=O)N/N=C/c1ccncc1 | -15% | – | 29.1 µM [rising, partial curve, poor fit]
CC(=O)OCC1=C(C(=O)O)N2C(=O)C(NC(=O)COc3ccc(F)cc3)C2SC1 (stereo not given) | -0.962% | – | 0.00461 µM [falling, full curve, poor fit]
Cc1csc(=O)n1CC(=O)OCc1nnc(-c2ccccc2)o1 | -28.3% | – | 29.1 µM [falling, single point]

Compound | cell number change | AC50 [1] | AC50 [2]
CC1(C(=O)OCC(=O)NC(=O)c2ccccc2)CC1(Cl)Cl (stereo not given) | -45.8% | 20.6 µM [falling, single point] | –
O=C1NCCCC1C(=O)N/N=C/c1ccc(Cl)cc1 (stereo not given) | -1.25% | – | 6.51 µM [falling, single point]
COc1ccc(COC(=O)C2=C(C)NC(=O)NC2c2ccccc2F)cc1 (stereo not given) | -12.9% | – | 23.1 µM [falling, single point]
Cn1c(=O)c(Nc2ccc(Cl)cc2)c2c3c(cccc31)C(=O)c1ccccc1-2 | 9.25% | – | 20.6 µM [falling, single point]
O=C(COC(=O)c1cc(-c2cccs2)nc2ccccc12)NCc1ccco1 | -36.7% | 7.31 µM [falling, partial curve, poor fit] | 9.2 µM [falling, partial curve, poor fit]
Cc1cccc(Oc2nc(-c3ccncc3)nc3ccccc23)c1 | -34.7% | 29.1 µM [falling, single point] | 29.1 µM [falling, single point]
COc1ccccc1C(=O)Nc1cc(C)on1 | 30.5% | 14.6 µM [rising, partial curve, poor fit] | –
COc1cc(OC)cc(C(=O)NC(=S)Nc2ccc3[nH]c(=O)[nH]c3c2)c1 | 61.3% | 18.4 µM [rising, partial curve] | –
Cc1ccc(OCc2cn3cccnc3n2)cc1 | 4.89% | – | 29.1 µM [rising, single point]
CCCCN(CCCC)S(=O)(=O)c1ccc(NC(=O)c2ccc([N+](=O)[O-])cc2Cl)cc1 | -18.4% | – | 0.58 µM [falling, partial curve, poor fit]
COc1cc(CC(=O)OCc2ccccc2F)cc(OC)c1OC | -24.8% | 0.231 µM [falling, full curve, poor fit] | –
O=C(COc1ccc2ccc(=O)oc2c1)Nc1nccs1 | -44.9% | 18.4 µM [falling, partial curve, poor fit] | 29.1 µM [falling, single point]
Cc1ccc(/C=C/C(=O)Nc2cc(=O)n(C)c(=O)n2C)o1 | 36% | 20.6 µM [rising, partial curve] | 29.1 µM [rising, single point]
COc1ccccc1NC(=O)Cn1cnc2sc(C)c(S(=O)(=O)N3CCCCC3)c2c1=O | 17% | – | 8.2 µM [rising, partial curve]
O=C(Nc1nncs1)c1ccc(Br)c(S(=O)(=O)N2CCCC2)c1 | – | 0.58 µM [falling, single point] | 0.58 µM [falling, single point]
CCC(CC)NC(=O)c1cccc(NC(=O)C(C)C)c1 | 3.21% | 0.13 µM [rising, full curve, poor fit] | 6.51 µM [rising, partial curve, poor fit]
COc1cc(OC)cc(C(=O)OCC(=O)Nc2ccc3[nH]c(=O)[nH]c3c2)c1 | 8% | – | –
COc1cc2nc(C3CCC3)nc(N3CCN(c4ccccc4OC)CC3)c2cc1OC | 4.24% | 1.64 µM [rising, partial curve] | 6.51 µM [falling, single point]
O=C(Cn1c2c(sc1=O)C1c3ccccc3OCC1CS2)Nc1ccc(Cl)cc1 (stereo not given) | 0.15% | – | 4.11 µM [falling, single point]
CCC(C)NC(=O)CN1C(=O)CC(C)(C)S(=O)(=O)c2ccccc21 (stereo not given) | 13.9% | – | –

Compound | cell number change | AC50 [1] | AC50 [2]
COc1ccccc1C(=O)n1nc(C)cc1C | 30.9% | – | –
CN1CCN(/N=C/c2cccc(Cl)c2Cl)CC1 | -4.64% | 2.31 µM [falling, single point] | 2.31 µM [falling, partial curve]
CCOC(=O)N1CCC2(CC1)CC(=O)c1cc(O)ccc1O2 | -10.1% | 0.164 µM [falling, full curve, poor fit] | 5.8 µM [falling, single point]
COCCn1c(SCc2ccc(C(=O)OC)o2)nnc1-c1c[nH]c2ccccc12 | 46.3% | 4.11 µM [rising, full curve, poor fit] | 4.11 µM [rising, partial curve, poor fit]
COc1cc(/C=N/Nc2nc(C)cc(C)n2)ccc1OC(=O)c1ccco1 | 8.92% | – | –
COC(=O)c1cnn(C(=O)c2ccccc2Br)c1N | -17% | – | 23.1 µM [falling, single point]
O=C(CCc1ccccc1)NCCS(=O)(=O)N1CCN(c2ccccc2)CC1 | 9.73% | – | –
COc1cc(OC)cc(C(=O)OCCCOC(=O)c2cc(OC)cc(OC)c2)c1 | 4.11% | 6.51 µM [rising, single point] | –
O=C(O)CSc1nc(SCc2ccccc2Cl)nc2c1CCCC2 | 18.9% | – | 2.91 µM [rising, single point]
Cc1nnc(SCC(=O)NC(=O)NCCC(C)C)s1 | 36.5% | 0.116 µM [rising, full curve, poor fit] | 0.13 µM [rising, full curve, poor fit]
CC1(C)CC(=O)C2=C(C1)OC(N)=C([N+](=O)[O-])C2c1ccc(C#N)s1 (stereo not given) | -11.8% | – | 16.4 µM [falling, single point]
O=C(COc1ccc([N+](=O)[O-])cc1)NC(C(=O)O)C(O)c1cccc([N+](=O)[O-])c1 (stereo not given) | 4.39% | – | 3.66 µM [rising, single point]
O=C(NCC(c1cccs1)N1CCOCC1)c1cc(S(=O)(=O)N2CCOCC2)ccc1F (stereo not given) | 27.5% | – | –
Clc1ccc(-c2noc(CSc3nnc(-c4ccncc4)n3-c3ccccc3)n2)cc1 | 4.65% | 1.46 µM [rising, partial curve] | 4.11 µM [rising, partial curve, poor fit]
CCOP(=O)(OCC)C(Nc1ccccc1)c1cccnc1 (stereo not given) | 19.6% | – | 11.6 µM [rising, partial curve]
Cc1c(Cl)cccc1NC(=O)c1cc(C2CC2)on1 | 19.1% | – | –
CCOC(=O)c1c(C)[nH]c(C(=O)COC(=O)CNS(=O)(=O)c2ccc(C)cc2)c1C | -40.8% | 9.2 µM [falling, partial curve] | 8.2 µM [falling, partial curve]
O=C(NCCc1ccc(F)cc1)c1cc2ccccc2oc1=O | 10.8% | – | –
O=C(NCc1ccc(N2CCCC2=O)cc1)Nc1ccccc1 | 105% | 16.4 µM [rising, partial curve] | 6.51 µM [rising, single point]

3 compounds already listed, ordered by length of the SMILES, low to high:
Compound | cell number change | AC50 [1] | AC50 [2]
CN1CCN(/N=C/c2cccc(Cl)c2Cl)CC1 | -4.64% | 2.31 µM [falling, single point] | 2.31 µM [falling, partial curve]
Cc1c(Cl)cccc1NC(=O)c1cc(C2CC2)on1 | 19.1% | – | –
O=C(O)CSc1nc(SCc2ccccc2Cl)nc2c1CCCC2 | 18.9% | – | 2.91 µM [rising, single point]

Source: PubChem BioAssay AID2685 (National Center for Advancing Translational Sciences (NCATS), 2010)
